The text below walks through data of article PMC12866797, “Targeting DESI2 as a Novel Therapeutic Strategy for JAK2‐Mutant Leukemias” (Advanced Science, 2025).

Protein sequences, listed by entry. Tags and fused reporters are not part of them. Lines headed by an entry give the natural chain unless they say otherwise; changes in a name come on top.
UniProt Q9D291: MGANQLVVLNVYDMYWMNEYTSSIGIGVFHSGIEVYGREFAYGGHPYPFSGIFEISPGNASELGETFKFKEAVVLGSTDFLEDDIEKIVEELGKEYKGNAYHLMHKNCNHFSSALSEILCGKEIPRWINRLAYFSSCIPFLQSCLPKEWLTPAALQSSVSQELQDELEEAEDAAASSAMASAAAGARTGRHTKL
UniProt O60674: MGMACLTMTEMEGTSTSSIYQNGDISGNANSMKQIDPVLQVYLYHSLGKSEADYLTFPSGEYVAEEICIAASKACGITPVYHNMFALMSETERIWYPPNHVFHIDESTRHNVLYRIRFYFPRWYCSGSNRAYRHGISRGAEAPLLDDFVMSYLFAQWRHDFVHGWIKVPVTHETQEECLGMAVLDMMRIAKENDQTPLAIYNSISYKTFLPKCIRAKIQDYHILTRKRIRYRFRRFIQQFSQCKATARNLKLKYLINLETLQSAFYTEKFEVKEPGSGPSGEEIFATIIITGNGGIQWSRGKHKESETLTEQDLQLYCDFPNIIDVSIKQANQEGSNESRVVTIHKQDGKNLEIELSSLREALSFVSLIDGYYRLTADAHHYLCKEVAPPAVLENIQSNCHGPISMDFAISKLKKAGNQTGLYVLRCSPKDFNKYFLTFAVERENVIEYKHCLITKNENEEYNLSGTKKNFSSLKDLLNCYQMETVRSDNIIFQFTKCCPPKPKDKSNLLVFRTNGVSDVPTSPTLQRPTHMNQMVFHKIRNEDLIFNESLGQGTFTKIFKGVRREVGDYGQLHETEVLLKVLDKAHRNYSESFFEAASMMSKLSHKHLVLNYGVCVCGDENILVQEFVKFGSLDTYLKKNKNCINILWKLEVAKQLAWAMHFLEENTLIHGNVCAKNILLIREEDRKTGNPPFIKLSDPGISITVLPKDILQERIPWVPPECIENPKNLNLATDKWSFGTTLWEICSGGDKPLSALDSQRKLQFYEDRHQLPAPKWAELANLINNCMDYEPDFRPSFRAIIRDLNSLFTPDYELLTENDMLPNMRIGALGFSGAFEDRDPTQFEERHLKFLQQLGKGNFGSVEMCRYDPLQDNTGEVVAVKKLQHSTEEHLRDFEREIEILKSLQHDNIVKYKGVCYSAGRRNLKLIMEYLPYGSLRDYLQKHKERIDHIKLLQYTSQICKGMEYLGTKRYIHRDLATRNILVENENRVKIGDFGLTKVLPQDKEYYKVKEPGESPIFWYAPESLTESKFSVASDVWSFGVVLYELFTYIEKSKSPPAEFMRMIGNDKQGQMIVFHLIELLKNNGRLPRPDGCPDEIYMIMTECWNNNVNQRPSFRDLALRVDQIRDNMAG
UniProt Q62120: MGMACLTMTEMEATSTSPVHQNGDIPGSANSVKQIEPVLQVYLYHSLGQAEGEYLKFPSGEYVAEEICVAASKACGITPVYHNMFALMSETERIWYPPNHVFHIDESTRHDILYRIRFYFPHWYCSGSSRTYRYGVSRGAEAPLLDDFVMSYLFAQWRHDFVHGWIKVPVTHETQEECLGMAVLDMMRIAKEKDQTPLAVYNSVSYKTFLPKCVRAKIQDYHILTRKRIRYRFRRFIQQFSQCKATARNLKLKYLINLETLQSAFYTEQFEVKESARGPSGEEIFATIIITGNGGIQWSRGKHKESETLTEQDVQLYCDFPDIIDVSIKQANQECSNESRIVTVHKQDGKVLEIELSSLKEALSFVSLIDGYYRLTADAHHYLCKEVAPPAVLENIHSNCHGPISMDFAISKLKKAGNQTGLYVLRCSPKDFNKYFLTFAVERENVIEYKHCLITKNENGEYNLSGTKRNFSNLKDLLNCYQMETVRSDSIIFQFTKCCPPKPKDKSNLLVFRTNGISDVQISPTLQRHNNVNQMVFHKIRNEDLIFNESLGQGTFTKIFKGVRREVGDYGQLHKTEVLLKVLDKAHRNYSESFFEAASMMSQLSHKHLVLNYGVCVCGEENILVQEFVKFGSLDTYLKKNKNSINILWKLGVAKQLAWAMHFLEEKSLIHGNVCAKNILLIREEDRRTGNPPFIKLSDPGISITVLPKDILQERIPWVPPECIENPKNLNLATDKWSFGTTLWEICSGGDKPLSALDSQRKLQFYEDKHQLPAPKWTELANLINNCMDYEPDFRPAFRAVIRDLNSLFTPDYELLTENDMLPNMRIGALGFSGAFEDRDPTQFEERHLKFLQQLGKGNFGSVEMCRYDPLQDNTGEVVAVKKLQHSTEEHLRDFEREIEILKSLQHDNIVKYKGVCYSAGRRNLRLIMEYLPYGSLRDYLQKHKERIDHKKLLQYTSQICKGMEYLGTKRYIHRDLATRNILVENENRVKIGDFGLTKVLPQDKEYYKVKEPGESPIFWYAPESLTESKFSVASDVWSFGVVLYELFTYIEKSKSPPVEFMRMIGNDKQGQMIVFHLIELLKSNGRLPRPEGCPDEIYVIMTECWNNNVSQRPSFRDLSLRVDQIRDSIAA
UniProt P08238: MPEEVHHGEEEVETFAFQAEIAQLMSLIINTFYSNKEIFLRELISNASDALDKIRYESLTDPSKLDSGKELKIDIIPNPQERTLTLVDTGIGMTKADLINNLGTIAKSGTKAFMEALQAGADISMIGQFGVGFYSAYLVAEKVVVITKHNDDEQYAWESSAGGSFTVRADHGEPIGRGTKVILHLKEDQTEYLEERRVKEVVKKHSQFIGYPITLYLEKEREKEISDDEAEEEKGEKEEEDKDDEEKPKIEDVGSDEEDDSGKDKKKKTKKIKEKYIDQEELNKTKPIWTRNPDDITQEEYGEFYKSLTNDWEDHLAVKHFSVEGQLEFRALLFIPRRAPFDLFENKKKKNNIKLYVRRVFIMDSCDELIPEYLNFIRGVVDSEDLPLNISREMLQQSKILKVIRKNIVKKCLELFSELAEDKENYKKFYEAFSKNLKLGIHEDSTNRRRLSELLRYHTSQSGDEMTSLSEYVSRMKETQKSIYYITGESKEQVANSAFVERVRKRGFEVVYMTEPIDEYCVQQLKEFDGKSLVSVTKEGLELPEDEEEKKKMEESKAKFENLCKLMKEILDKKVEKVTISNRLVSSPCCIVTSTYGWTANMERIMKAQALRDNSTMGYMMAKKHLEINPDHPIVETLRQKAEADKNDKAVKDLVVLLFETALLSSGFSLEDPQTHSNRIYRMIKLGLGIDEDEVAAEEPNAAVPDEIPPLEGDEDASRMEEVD
UniProt Q9BSY9: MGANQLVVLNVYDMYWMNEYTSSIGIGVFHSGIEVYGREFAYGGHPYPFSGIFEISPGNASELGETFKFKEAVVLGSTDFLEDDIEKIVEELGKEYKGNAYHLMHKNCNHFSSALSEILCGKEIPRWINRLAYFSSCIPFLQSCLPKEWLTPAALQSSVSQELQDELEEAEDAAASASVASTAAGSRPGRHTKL

Results are given in words; binding and its absence hold for the method and conditions named. Binding seen in cells or lysates may run through a third protein. Some binding calls cover weakened binding; strength is not graded here.

Assay [1] deals with DESI2 (endogenous, Ba/F3 cells) (mouse (endogenous in Ba/F3)) (UniProt Q9D291). In words: co-IP; Ba/F3-wt and Ba/F3-JAK2-V617F isogenic lines; co-IP using DESI2 antibodies; DESI2 levels normalised between the two lines.
Assay [2] concerns the target JAK2-V617F (endogenous, HEL cells) (human (endogenous in HEL)) (UniProt O60674). In words: co-IP; endogenous proteins, HEL lysate; reciprocal IP with anti-JAK2 or anti-DESI2 antibodies; immunoblot. For orientation: A western blot detects proteins with antibodies after separation by electrophoresis.
Assay [3] concerns the target FLAG-tagged JAK2-V617F (HEK293T) (UniProt O60674). Kind of assay: co-IP; HEK293T cells transfected with FLAG-JAK2-V617F, lysed 48 h after transfection; reciprocal IP with FLAG IgG beads or anti-DESI2 antibody; immunoblot.

Take “wild-type JAK2 of Ba/F3-wt cells (from UniProt Q62120 1-1132)”: in assay [1], the binding result is reported as “no binding”.
Regarding “HSP90AB1 (endogenous, HEL cells) (from UniProt P08238 1-724)”, the binding result in assay [2] is “binds”.
Take “DESI2 (endogenous, human cell lines) (from UniProt Q9BSY9 1-194) (enzyme)”: the binding result in assay [3] and in assay [2] was “binds” in each case.
